According to paper doi:10.1101/2023.01.25.525625:
No constants are given. Whether binding was seen depends on the method and setting. Some results given as binding are weak or reduced against the parent protein; the word gives no strength. Sequences can lack the tags named with a protein.

Key:
[1] = target: Solanum tuberosum REMORIN1.3 (StREM1.3), wild type, split-ubiquitin yeast two-hybrid fusion (Solanum tuberosum) (UniProt P93788); test: two-hybrid
[2] = target: T1, StREM1.3^(S74D T86D S91D) phosphomimic variant, split-ubiquitin yeast two-hybrid bait (Solanum tuberosum) (UniProt P93788); test: two-hybrid
T1 sequence: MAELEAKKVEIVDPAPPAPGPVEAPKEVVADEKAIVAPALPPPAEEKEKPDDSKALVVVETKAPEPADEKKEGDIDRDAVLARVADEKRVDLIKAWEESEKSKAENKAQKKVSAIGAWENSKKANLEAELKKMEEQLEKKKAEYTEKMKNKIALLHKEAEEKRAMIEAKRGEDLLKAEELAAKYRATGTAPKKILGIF

- binding [1]: binds
- binding [2]: binds
B1: Solanum tuberosum REMORIN1.3 (StREM1.3), wild type, split-ubiquitin yeast two-hybrid fusion (protein, UniProt P93788 1-198)
chain: MAELEAKKVEIVDPAPPAPGPVEAPKEVVADEKAIVAPALPPPAEEKEKPDDSKALVVVETKAPEPADEKKEGSIDRDAVLARVATEKRVSLIKAWEESEKSKAENKAQKKVSAIGAWENSKKANLEAELKKMEEQLEKKKAEYTEKMKNKIALLHKEAEEKRAMIEAKRGEDLLKAEELAAKYRATGTAPKKILGIF
